Reference: PubChem BioAssay AID1259266 (Sanger Institute, 2017)

Aim: 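Find knock-downs that kill LS123 cells or act with anchor drugs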 (primary screen)
Cell system: LS123 human colorectal cancer cells
Reagent: siRNA pool against human genes
Challenge: anchor drugs BYL719 (1 µM), cetuximab (5 µg/ml) or trametinib (10 nM), each chosen to barely slow growth alone; DMSO vehicle as the drug-free arm
Measured: 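Replicate-averaged viability scaled to non-targeting pools, robust z-score for siRNA alone, and a synergy score per anchor drug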
Direction: robust z-score, knock-down alone: higher = more cells surviving after knock-down; viability, knock-down alone: higher = more viable cells; synergy score with trametinib and synergy score with BYL719 and synergy score with cetuximab: higher = stronger synthetic lethality with drug
Active means: 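a knock-down counts as essential if its z-score without drug is under -3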
Calls: active = essential (knock-down alone cuts viability); inactive = no change
Shown is one part, drawn at random, of 794 reagents tested. In the full data, 16 (2%) were called active. 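Calls reflect knock-down alone, not drug synergy; viability seems capped at 1 and z-scores at 0.585.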 Unmarked entries are inactive. Reagent sequences are not shown. Not stated in the record: the amount of reagent, the time to read-out.

target gene | PubChem SID | robust z-score, knock-down alone | viability, knock-down alone (fraction of control) | synergy score with trametinib | synergy score with BYL719 | synergy score with cetuximab
KCNH8 (GeneID 131096) | SID134311656 | 0.585 | 1 | 0.0724 | 0.00357 | -0.0122
RPS6KA4 (GeneID 8986) | SID152147672 | -1.03 | 0.904 | 0.0343 | -0.0084 | 0.0791
PIP5K1B (GeneID 8395) | SID152154468 | -0.331 | 0.946 | -0.0738 | -0.14 | -0.0438
SYNCRIP (GeneID 10492) | SID134320219 | -1.59 | 0.871 | 0.0218 | 0.0351 | 0.0653
GATA3 (GeneID 2625) | SID134310077 | -0.0819 | 0.96 | -0.0228 | -0.193 | -0.0247
CHD4 (GeneID 1108) | SID152156048 | -1.36 | 0.884 | -0.0465 | -0.0632 | 0.0502
PTEN (GeneID 5728) | SID152153158 | 0.135 | 0.973 | -0.187 | -0.179 | -0.0386
PDPK1 (GeneID 5170) | SID135620604 | 0.585 | 1 | -0.0161 | -0.0802 | 0.0259
IPPK (GeneID 64768) | SID152153893 | -2.45 | 0.819 | -0.0434 | -0.0112 | 0.0483
GSK3A (GeneID 2931) | SID56478467 | -1.38 | 0.883 | 0.0125 | -0.0124 | 0.0919
PKM (GeneID 5315) | SID135621254 | 0.585 | 1 | -0.0424 | -0.0593 | -0.0122
DAPK2 (GeneID 23604) | SID152156399 | 0.585 | 1 | -0.119 | -0.14 | -0.00952
CILK1 (GeneID 22858) | SID152149076 | 0.488 | 0.994 | -0.0244 | -0.0278 | -0.0179
RET (GeneID 5979) | SID135620630 | 0.585 | 1 | -0.132 | -0.0977 | -0.0122
LIMK2 (GeneID 3985) | SID152148517 | 0.585 | 1 | -0.00948 | -0.0856 | -0.0122
CUL1 (GeneID 8454) | SID134310265 | 0.585 | 1 | -0.112 | -0.109 | -0.0122
SGK2 (GeneID 10110) | SID56478843 | 0.585 | 1 | -0.0714 | -0.102 | -0.0122
BUB1B (GeneID 701) | SID152154799 | -1.42 | 0.881 | -0.0566 | -0.128 | 0.035
BRD4 (GeneID 23476) | SID152154839 | -1.7 | 0.864 | -0.0898 | -0.0871 | -0.0615
UCKL1 (GeneID 54963) | SID152149527 | 0.479 | 0.994 | 0.138 | -0.00238 | 0.0748

No new results follow: entries from further up.
target gene | PubChem SID | robust z-score, knock-down alone | viability, knock-down alone (fraction of control) | synergy score with trametinib | synergy score with BYL719 | synergy score with cetuximab
PTEN (GeneID 5728) | SID152153158 | 0.135 | 0.973 | -0.187 | -0.179 | -0.0386
PDPK1 (GeneID 5170) | SID135620604 | 0.585 | 1 | -0.0161 | -0.0802 | 0.0259
